About 4,000 (1%) of roughly 390,000 compounds were called active. Inconclusive means that the source gave no clear call. Such entries were picked first, then a sample of the others. The call rests on the fitted dose curve; in most records, active means well fitted inhibition curve with a large enough effect; inconclusive means small, poorly fitted or top-dose-only effect, or another doubt; inactive means no such curve, though single readings can be large or run the other way. Potencies beside an inconclusive call are fits to weak or partial responses and may not hold up. Some compounds were tested as several samples or in several runs, with calls that do not always agree. Non-standard residues stand in square brackets, D forms with d. Residues, ends and D or L forms follow the SMILES beside them. ξ: configuration not given here. *: point of attachment. Cbz = O=C(OCc1ccccc1)*; ξL = CC(C)CC(N)C(=O)O; ξP = O=C(O)C1CCCN1
The compounds below were run against DNA polymerase iota (Homo sapiens) (UniProt Q9UNA4) (assay: qHTS for Inhibitors of Polymerase Iota). Conditions: Pol iota fluorescent replication assay, 10 min; series mostly up to 115 µM; activity, negative = inhibition: at the top concentration.
In short: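 Fluorescent replication assay read twice, at 0 min and 10 min after adding 50 nM (final) substrate. Enzyme (10 nM) and compounds were first incubated 15 min at room temperature; enzyme-free buffer wells were negative controls.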
Potency means the concentration at half of the fitted maximal effect.

Protein sequences, listed by entry. Tags and fused reporters are not part of them. Lines headed by an entry give the natural chain unless they say otherwise; changes in a name come on top.
UniProt Q9UNA4: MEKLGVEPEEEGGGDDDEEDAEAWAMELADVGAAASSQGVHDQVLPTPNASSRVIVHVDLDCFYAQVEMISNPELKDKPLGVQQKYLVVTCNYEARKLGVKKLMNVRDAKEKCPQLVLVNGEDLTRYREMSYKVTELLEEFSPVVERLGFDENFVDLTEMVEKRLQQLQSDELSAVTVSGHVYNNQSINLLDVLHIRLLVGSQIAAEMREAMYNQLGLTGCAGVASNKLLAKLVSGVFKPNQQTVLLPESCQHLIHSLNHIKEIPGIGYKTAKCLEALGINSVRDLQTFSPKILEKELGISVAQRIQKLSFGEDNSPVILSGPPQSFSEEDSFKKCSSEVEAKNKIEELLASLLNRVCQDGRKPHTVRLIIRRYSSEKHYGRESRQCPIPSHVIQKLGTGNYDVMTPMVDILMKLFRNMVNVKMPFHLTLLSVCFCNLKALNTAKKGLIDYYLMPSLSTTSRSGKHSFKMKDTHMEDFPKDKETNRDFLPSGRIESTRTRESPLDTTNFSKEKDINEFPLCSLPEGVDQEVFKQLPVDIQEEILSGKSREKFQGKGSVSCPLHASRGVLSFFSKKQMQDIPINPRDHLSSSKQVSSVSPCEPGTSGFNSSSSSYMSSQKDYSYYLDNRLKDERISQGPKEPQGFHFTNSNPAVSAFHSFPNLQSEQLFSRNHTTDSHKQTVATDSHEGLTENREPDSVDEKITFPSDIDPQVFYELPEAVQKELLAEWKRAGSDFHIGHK

| Compound | Potency | activity, negative = inhibition |
| --- | --- | --- |
| Cc1ccc(S(=O)(=O)N2CCOCC2)cc1NC(=O)CN1CCN(c2ccc(O)cc2)CC1 | inconclusive: 56.2 µM [inhibitor, partial curve, poor fit] | – |
| COc1cc(/C=C2\S/C(=N/S(=O)(=O)c3ccccc3)NC2=O)c([N+](=O)[O-])cc1OC | inconclusive: 14.1 µM [inhibitor, partial curve, poor fit] | – |
| Cc1ccc(SCCNCc2ccco2)cc1 | inconclusive: 39.8 µM [inhibitor, single point] | – |
| C#CCOCCOCCOCCNc1nc(N2CCOCC2)nc(N2CCN(C(=O)CCCCCCCCCCNC(=O)[C@@H]([C@H](C)O)n3cc(C)nn3)CC2)n1 | inconclusive: 20 µM [inhibitor, partial curve, poor fit] | – |
| CCSc1nnc(NC(=O)c2ccc3nc[nH]c3c2)s1 | inconclusive: 17.8 µM [inhibitor, partial curve, poor fit] | – |
| S=c1[nH]nc2n1CCCN2 | – | inactive: 122% |
| N#Cc1ccccc1CN1C(=O)S/C(=C/c2cccn2-c2cccc(C(=O)O)c2)C1=O | inconclusive: 6.31 µM [inhibitor, full curve, poor fit] | – |
| CCCCOc1ccc(Nc2cc(Cl)ccc2C(=O)O)cn1 | – | inactive: 74.8% |
| O=C(CNC(=O)c1nc[nH]c1C(=O)N1CCNCC1)OCc1ccccc1 | inconclusive: 35.5 µM [inhibitor, partial curve] | – |
| O=C(Nc1ccc2c(c1)OCO2)C(c1ccccc1)N1CCN(C(=O)c2ccco2)CC1 (stereo not drawn) | inconclusive: 39.8 µM [inhibitor, single point] | – |
| C/C(N)=C(/C#N)C(=O)CSc1nnnn1-c1ccc(C)cc1 | inconclusive: 44.7 µM [inhibitor, partial curve, poor fit] | – |
| CCn1c(SCCN2CCCCC2)nnc1-c1ccc(S(=O)(=O)N2CCOCC2)cc1 | inconclusive: 39.8 µM [inhibitor, single point] | – |
| CC1CCN(C(=O)c2cc3ccccc3o2)CC1 | inconclusive: 35.5 µM [inhibitor, single point] | – |
| O=C1CSC(=S)N1/N=C/c1ccc2c(c1)OCCO2 | inconclusive: 2.82 µM [inhibitor, full curve, poor fit] | – |
| CC(=O)Nc1ccc(S(=O)(=O)O)c2cc(S(=O)(=O)O)c(N=Nc3ccc(N=Nc4ccc(S(=O)(=O)O)cc4)c4ccc(S(=O)(=O)O)cc34)c(O)c12 | active: 3.16 µM | – |
| CC1CCN(Cc2c(C(=O)N3CCc4ccccc4C3)nc3ccc(Cl)cn23)CC1 | inconclusive: 70.8 µM [inhibitor, partial curve, poor fit] | – |
| Cc1ccn2c(=O)nc(SCC(=O)N3CCN(c4ccccc4)CC3)nc2c1 | active: 50.1 µM | – |
| COc1ccc(Cl)cc1Nc1ncnc2c1c(-c1ccccc1)cn2-c1ccccc1 | inconclusive: 100 µM [inhibitor, partial curve, poor fit] | – |
| CC(C)CC(NC(=O)C1CCCN1C(=O)[C@@H](C)NC(=O)OCc1ccccc1)C(=O)NCC(N)=O (stereo partly drawn) (Cbz-[dA][ξP][ξL]G-NH2) | inconclusive: 70.8 µM [inhibitor, single point] | – |
| O=C(O)c1cccc(N2CCCC2)c1 | inconclusive: 15.8 µM [inhibitor, full curve] | – |
| CCOC(=O)CSc1n[nH]c(NC(=O)c2ccc(F)cc2)n1 | inconclusive: 22.4 µM [inhibitor, partial curve, poor fit] | – |

| Compound | Potency | activity, negative = inhibition |
| --- | --- | --- |
| COc1cc(NC(=O)c2ccccc2OCc2ccccc2)cc(OC)c1OC | inconclusive: 39.8 µM [inhibitor, single point] | – |
| CC(=O)C1=C(O)C(=O)N(c2ccc(Br)cc2)C1c1ccccc1[N+](=O)[O-] (stereo not drawn) | inconclusive: 31.6 µM [inhibitor, partial curve, poor fit] | – |
| COc1ccccc1Cn1ccn(Cc2c(F)cccc2Cl)c(=O)c1=O | – | inactive: 8.71% |
| C=CCC1NS(=O)(=O)OCC1C(C)C (stereo not drawn) | inconclusive: 1 µM [inhibitor, full curve, poor fit] | – |
| C/C(=C\c1ccco1)C1C(C#N)=C(N)OC2=C1C(=O)CC(C)(C)C2 (stereo not drawn) | inconclusive: 20 µM [inhibitor, full curve, poor fit] | – |
| O=C(CSc1nc(-c2ccccc2)cs1)Nc1nccs1 | inconclusive: 31.6 µM [inhibitor, partial curve, poor fit] | – |
| COc1ccccc1/C=C/C(=O)c1ccc(Cl)cc1 | inconclusive: 17.8 µM [inhibitor, partial curve, poor fit] | – |
| CCN(CC)C(=O)c1sc(NC(=O)C(C)Sc2nc(-c3ccccc3)cc(C(F)(F)F)n2)c(C(=O)OC)c1C (stereo not drawn) | – | inactive: 14% |
| Cc1ccc(NC(=O)c2cc(-c3ccc(C)o3)nc3ccccc23)cc1 | inconclusive: 12.6 µM [inhibitor, full curve, poor fit] | – |
| O=c1c(-c2ccc(Cl)cc2)c[nH]n1-c1ccccc1 | inconclusive: 25.1 µM [inhibitor, single point] | – |
| CCN(c1ccccc1)c1nnc(NC(=O)Nc2cccc(Cl)c2C)s1 | – | inactive: 74.2% |
| C=CCNC1=C(Cl)C(=O)N(Cc2ccccc2)C1=O | inconclusive: 89.1 µM [inhibitor, single point] | – |
| COc1cccc(CNC(=O)c2oc3ccc4c(c3c2C)C(=O)CC(C)(C)O4)c1OC | – | inactive: 13.3% |
| Cn1c(C(=O)N2CCCC(C(=O)NCc3cccs3)C2)cc2sccc21 (stereo not drawn) | inconclusive: 79.4 µM [inhibitor, partial curve] | – |
| CCN(CC)CCn1c2c(c(SCC(=O)Nc3cccc(C(F)(F)F)c3)nc1=O)CCC2 | inconclusive: 39.8 µM [inhibitor, partial curve, poor fit] | – |
| Cc1cccc(CNC(=O)Cc2ccc(NC(=O)N3CCCCc4ccccc43)cc2)c1 | – | inactive: 29.6% |
| CCOC(=O)c1[nH]c(C)c(CCC(=O)NC(C)c2ccccc2)c1C (stereo not drawn) | – | inactive: 6.44% |
| O=C(Nc1cc2ccc(O)cc2oc1=O)c1ccc(F)cc1 | inconclusive: 17.8 µM [inhibitor, partial curve, poor fit] | – |
| COc1ccc(CNC(=O)c2cc3c(=O)n4cccc(C)c4nc3s2)cc1 | – | inactive: 14.9% |
| CC(C)C[C@@H](CN)NC(=O)c1nc[nH]c1C(=O)N[C@@H](Cc1c[nH]c2ccccc12)C(=O)CNC[C@H](C)NC(=O)c1nc[nH]c1C(=O)N[C@@H](C)C(=O)O | inconclusive: 20 µM [inhibitor, partial curve, poor fit] | – |
| CN(NC(=O)c1cccc(Cl)c1)c1nc(-c2ccccc2)nnc1C(F)(F)F | inconclusive: 79.4 µM [inhibitor, partial curve] | – |

| Compound | Potency | activity, negative = inhibition |
| --- | --- | --- |
| C=CCOc1c(Cl)cc(C(=S)N2CCCC2)cc1OCC | – | inactive: 106% |
| CC1=C(C(=O)Nc2ccccc2C)C(c2ccc(C)o2)N2C(=O)CSC2=N1 (stereo not drawn) | inconclusive: 28.2 µM [inhibitor, partial curve, poor fit] | – |
| CCCC(=NCCc1c(C)[nH]c2ccccc12)C1=C(O)CC(c2ccccc2)CC1=O (stereo not drawn) | active: 89.1 µM | – |
| Cc1[nH]oc(=O)c1N=Nc1ccc2[nH]c(=O)[nH]c2c1 | inconclusive: 0.794 µM [inhibitor, full curve, poor fit] | – |
| CCOC(=O)C1CCN(Cc2ccc(F)cc2)CC1 | inconclusive: 6.31 µM [inhibitor, single point] | – |
| Cc1cc(/C=C2\Sc3ccccc3N2C)cc(C)[n+]1CC1CCCO1 (stereo not drawn) | – | inactive: 29% |
| O=C(CN1CCN(CCO)CC1)Nc1ccccc1 | inconclusive: 17.8 µM [inhibitor, partial curve, poor fit] | – |
| CCOc1ccc(-c2nn(-c3ccccc3)cc2C2NC(=O)NC(C)=C2C(=O)OC(C)C)cc1C (stereo not drawn) | – | inactive: -5.97% |
| COc1ccc(NC(=O)C2CCCCN2N)cc1OC (stereo not drawn) | inconclusive: 6.31 µM [inhibitor, single point] | – |
| Cc1ccc2c(c1)C(=O)C(=O)N2Cc1ccc(OC(C)C)cc1 | inconclusive: 17.8 µM [inhibitor, partial curve, poor fit] | – |
| CC(C)(C)NC(=O)COC(=O)c1c2c(nc3ccccc13)CCC2 | inconclusive: 25.1 µM [inhibitor, full curve] | – |
| COc1ccccc1NC(=O)c1coc(=O)c(Br)c1 | – | inactive: 22.3% |
| CN(Cc1ccc(F)cc1)S(=O)(=O)c1nnc(NC(=O)c2ccc(F)cc2)s1 | – | inactive: 24.6% |
| CN(C)C(=O)c1cc(C(=O)c2ccc(C(F)(F)F)cc2)c[nH]1 | inconclusive: 79.4 µM [inhibitor, single point] | – |
| COC(=O)[C@H](C)NC(=O)NC1CCCc2ccccc21 (stereo partly drawn) | inconclusive: 100 µM [inhibitor, single point] | – |
| CC1CCCCC12NC(=O)N(CC(=O)Nc1sc3c(c1C(N)=O)CCC3)C2=O (stereo not drawn) | inconclusive: 112 µM [inhibitor, partial curve, poor fit] | – |
| CCOc1ncccc1C(=O)OCC(=O)Nc1nnc(-c2ccccc2)o1 | inconclusive: 25.1 µM [inhibitor, partial curve, poor fit] | – |
| COc1ccc(NC(=O)C2CCCN(S(=O)(=O)c3ccc4c(c3)CCCN4C(C)=O)C2)cc1 (stereo not drawn) | active: 79.4 µM | – |
| CC1=CSC2=NC(=O)/C(=C\c3cccn3-c3ccc([N+](=O)[O-])cc3)C(=N)N12 | inconclusive: 89.1 µM [inhibitor, single point] | – |
| O=c1cc(-c2ccc(O)c(O)c2)oc2cc(O)c(C3OC(CO)C(O)C(O)C3O)c(O)c12 (stereo not drawn) | active: 10 µM | – |
| O=C1NC[C@H](Cc2ccccc2)N(C[C@H]2CCCN2C[C@H](Cc2ccccc2)N2C[C@H](Cc3ccc(O)cc3)N(CCc3ccccc3)C(=O)C2=O)C1=O | inconclusive: 56.2 µM [inhibitor, single point] | – |
